Measurements reported in PubChem BioAssay AID1259424 (University of Nebraska Medical Center, 2018)
Screen: 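Find knockdowns that reproduce the expression shifts seen after KSR1 loss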 (primary screen). Cells: human HCT116 colon cancer cells. Reagents: siRNA pool against human genes, 50 nM. Measurement: 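Log2 levels of six mRNAs (branched-DNA multiplex), adjusted by two reference genes and the non-targeting median, then scored against the average KSR1 knockdown pattern as Pearson r and euclidean distance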. Direction: mean correlation with KSR1 profile and KSR1 correlation: higher = expression change more like KSR1 knockdown; mean distance from KSR1 profile: higher = expression change less like KSR1 knockdown.
The whole screen tested about 14,000 reagents; this is a part drawn at random. 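Higher correlation or smaller distance means closer resemblance to KSR1 loss; control wells, including KSR1 knockdowns, recur on many plates.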 Not given: the time to read-out.

gene symbol,mean correlation with KSR1 profile,mean distance from KSR1 profile,"KSR1 correlation, replicate 1","KSR1 correlation, replicate 2","KSR1 correlation, replicate 3"
CPO (carboxypeptidase O),0.0345,3.06,0.0494,0.641,-0.231
ZNRD2 (zinc ribbon domain containing 2),-0.376,2.04,-0.528,-0.438,-0.0784
TRIM17 (tripartite motif containing 17),-0.653,2.92,-0.405,-0.552,-0.613
CEACAM7 (CEA cell adhesion molecule 7),0.408,1.43,0.441,0.298,0.286
KAT6B (lysine acetyltransferase 6B),-0.337,2.26,-0.294,-0.275,-0.255
TFAP2B (transcription factor AP-2 beta),0.246,1.27,0.205,0.721,0.13
"JUND (JunD proto-oncogene, AP-1 transcription factor subunit)",0.429,2.52,0.681,0.699,0.212
WWC1 (WW and C2 domain containing 1),-0.231,2.75,-0.179,-0.393,-0.0699
NFE2L2 (NFE2 like bZIP transcription factor 2),0.246,1.58,0.485,0.133,0.275
CSRP2 (cysteine and glycine rich protein 2),0.182,1.54,0.312,0.243,0.15
PLAG1 (PLAG1 zinc finger),-0.00365,3.05,0.0869,-0.106,0.208
CUL2 (cullin 2),-0.682,2.27,-0.47,-0.753,-0.648
ATXN7L1 (ataxin 7 like 1),-0.197,2.73,-0.134,-0.137,-0.086
ZWINT (ZW10 interacting kinetochore protein),-0.683,3.4,-0.635,-0.536,-0.705
FLVCR1 (FLVCR choline and heme transporter 1),-0.733,2.06,-0.906,-0.621,-0.55
OR10A3 (olfactory receptor family 10 subfamily A member 3),0.335,1.98,0.142,0.00589,0.0414
FAM90A1 (family with sequence similarity 90 member A1),-0.282,2.72,-0.388,-0.303,-0.221
ID3 (inhibitor of DNA binding 3),-0.0857,1.72,0.072,0.174,-0.173
ASRGL1 (asparaginase and isoaspartyl peptidase 1),-0.182,1.53,-0.0145,-0.588,-0.683
PJA2 (praja ring finger ubiquitin ligase 2),-0.275,3.36,-0.154,-0.57,-0.0508

Reprinted from the listing, 2 entries:
gene symbol,mean correlation with KSR1 profile,mean distance from KSR1 profile,"KSR1 correlation, replicate 1","KSR1 correlation, replicate 2","KSR1 correlation, replicate 3"
FAM90A1 (family with sequence similarity 90 member A1),-0.282,2.72,-0.388,-0.303,-0.221
ID3 (inhibitor of DNA binding 3),-0.0857,1.72,0.072,0.174,-0.173
